Results are given in words; binding and its absence hold for the method and conditions named. Binding seen in cells or lysates may run through a third protein. Some binding calls cover weakened binding; strength is not graded here. For some of these results: Where a sequence is shown, tags or fusion partners need not be part of it.
Columns and labels:
[1] = biological target: 3xFLAG-ATG3 C264A (human) (UniProt Q9NT62); assay: co-IP
[2] = biological target: 3xFLAG-ATG3 W107A (human) (UniProt Q9NT62); assay: co-IP
[3] = biological target: 3xFLAG-ATG3 wild-type (human) (UniProt Q9NT62); assay: co-IP
[4] = biological target: 3xFLAG-ATG3 ΔLIR (human) (UniProt Q9NT62); assay: co-IP
[5] = biological target: T1, 3xFLAG-ATG7 (UniProt O95352); assay: pull-down
T1 sequence: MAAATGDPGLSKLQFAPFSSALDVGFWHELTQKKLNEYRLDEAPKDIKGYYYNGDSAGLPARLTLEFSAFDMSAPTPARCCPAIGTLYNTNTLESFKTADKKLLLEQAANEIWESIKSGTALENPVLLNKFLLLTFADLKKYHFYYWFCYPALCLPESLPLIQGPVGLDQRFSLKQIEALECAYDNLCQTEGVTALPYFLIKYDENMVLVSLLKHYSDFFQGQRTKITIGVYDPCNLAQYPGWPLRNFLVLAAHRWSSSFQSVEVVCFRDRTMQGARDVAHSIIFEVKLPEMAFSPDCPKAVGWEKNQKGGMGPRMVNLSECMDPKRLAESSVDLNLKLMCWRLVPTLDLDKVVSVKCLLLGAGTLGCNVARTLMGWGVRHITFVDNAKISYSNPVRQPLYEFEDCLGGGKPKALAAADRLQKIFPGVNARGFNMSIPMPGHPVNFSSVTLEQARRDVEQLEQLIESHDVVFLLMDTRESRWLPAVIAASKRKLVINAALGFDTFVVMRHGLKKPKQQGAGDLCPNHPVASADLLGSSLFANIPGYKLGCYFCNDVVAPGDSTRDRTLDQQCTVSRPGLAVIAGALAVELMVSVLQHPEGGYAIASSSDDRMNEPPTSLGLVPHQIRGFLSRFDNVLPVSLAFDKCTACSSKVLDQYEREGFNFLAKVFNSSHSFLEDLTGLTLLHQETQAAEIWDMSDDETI

Protein sequences, listed by entry. Tags and fused reporters are not part of them. Lines headed by an entry give the natural chain unless they say otherwise; changes in a name come on top.
UniProt Q676U5: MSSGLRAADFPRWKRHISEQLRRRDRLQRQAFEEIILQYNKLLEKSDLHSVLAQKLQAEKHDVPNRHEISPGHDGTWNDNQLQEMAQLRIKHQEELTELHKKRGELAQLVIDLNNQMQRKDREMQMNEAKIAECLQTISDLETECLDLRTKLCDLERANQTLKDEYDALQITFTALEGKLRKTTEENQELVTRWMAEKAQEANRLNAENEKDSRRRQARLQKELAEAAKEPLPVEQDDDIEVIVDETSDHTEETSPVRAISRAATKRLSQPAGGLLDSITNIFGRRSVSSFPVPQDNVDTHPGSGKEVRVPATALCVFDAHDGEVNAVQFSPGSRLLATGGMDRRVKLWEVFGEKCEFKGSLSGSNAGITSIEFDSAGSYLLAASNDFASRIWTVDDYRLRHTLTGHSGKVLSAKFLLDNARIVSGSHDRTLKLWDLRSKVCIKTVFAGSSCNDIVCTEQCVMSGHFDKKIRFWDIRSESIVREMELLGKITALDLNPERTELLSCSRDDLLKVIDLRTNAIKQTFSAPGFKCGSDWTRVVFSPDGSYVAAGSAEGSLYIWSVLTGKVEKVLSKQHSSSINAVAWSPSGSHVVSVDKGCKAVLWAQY
UniProt Q9H1Y0: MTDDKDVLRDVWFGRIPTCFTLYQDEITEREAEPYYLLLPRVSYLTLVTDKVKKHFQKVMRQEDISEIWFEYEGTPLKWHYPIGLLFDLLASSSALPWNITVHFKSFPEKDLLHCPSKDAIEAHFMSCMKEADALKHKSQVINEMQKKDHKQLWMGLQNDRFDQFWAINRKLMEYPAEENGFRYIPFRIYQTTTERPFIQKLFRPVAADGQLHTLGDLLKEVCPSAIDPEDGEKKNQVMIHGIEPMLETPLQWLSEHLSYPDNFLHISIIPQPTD
UniProt O94817: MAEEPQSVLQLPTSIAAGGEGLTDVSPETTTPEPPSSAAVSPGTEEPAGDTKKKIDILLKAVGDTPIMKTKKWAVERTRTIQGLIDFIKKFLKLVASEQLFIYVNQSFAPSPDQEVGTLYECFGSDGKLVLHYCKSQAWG

binding [1]	binding [2]	binding [3]	binding [4]	binding [5]	Substance
binds	binds	binds	binds		ATG16L1 (from UniProt Q676U5 1-607)
binds	binds	binds	binds		ATG5–ATG12 complex (from UniProt Q9H1Y0;O94817)
				binds	ATG3 wild-type, recombinant (from UniProt Q9NT62 1-314) (enzyme)
				binds	ATG3 ΔLIR in wild-type ATG3 (all cysteines retained), recombinant (from UniProt Q9NT62 1-314) (enzyme)
